Assay results from patent US10048278B2, “Screening for neurotoxic amino acid associated with neurological disorders” (priority 2003, dated 2018).

Parameters: species or system Cycas micronesica Hill; key: † = trace amounts; — = not detectable
[1] = roots, coralloid, senescent infection
[2] = root, coralloid, heavy infection
[3] = seed sarcotesta, outer integument layer

Row | Compound | mean concentration in tissue (female sporophyll) | mean concentration in tissue (leaf mucilage) | presence of HPLC peak, not quantified (Leaf) | presence of HPLC peak, not quantified (female sporophyll) | presence of HPLC peak, not quantified (male sporangia, mature) | presence of HPLC peak, not quantified [2] | presence of HPLC peak, not quantified (seed gametophyte) | presence of HPLC peak, not quantified (seed sarcotesta) | presence of HPLC peak, not quantified [3] | other results
1 | CNC[C@H](N)C(=O)O [BMAA, β-N-methylamino-L-alanine] | — | — |  |  |  |  |  |  |  | mean concentration in tissue (male sporophyll, mature): —; mean concentration in tissue (root, coralloid, non-infected): —; mean concentration in tissue (root, non-coralloid): —; mean concentration in tissue [1]: —; mean concentration in tissue (stem, inner cortex): —; mean concentration in tissue (stem, outer cortex): —; mean concentration in tissue (stem, xylem): —
2 | N[C@@H](CNC(=O)C(=O)O)C(=O)O [BOAA, β-N-oxalyl-amino-L-alanine] |  |  | † | — | † | † | † | — | † | presence of HPLC peak, not quantified (leaf mucilage): —; presence of HPLC peak, not quantified (male sporangia, immature): †; presence of HPLC peak, not quantified (male sporophyll, immature): —; presence of HPLC peak, not quantified (male sporophyll, mature): —; presence of HPLC peak, not quantified (root, coralloid, mild infection): †; presence of HPLC peak, not quantified (root, coralloid, non-infected): †; presence of HPLC peak, not quantified (root, non-coralloid): †; presence of HPLC peak, not quantified [1]: —; presence of HPLC peak, not quantified (stem, inner cortex): —; presence of HPLC peak, not quantified (stem, outer cortex): —; presence of HPLC peak, not quantified (stem, xylem): —
3 | NCCC(N)C(=O)O (stereo not shown) [DAB, 2,4-diamino butyrate] |  |  | † | † | † |  | — | — | — | 
4 | NCC(N)C(=O)O (stereo not shown) [DAP, 2,3-diaminopropionate] |  |  |  |  | † | † | — | — | — | 
5 | N[C@@H](CCC(=O)O)C(=O)O [GLU, glutamic acid] | — | — |  |  |  |  |  |  |  | mean concentration in tissue (male sporangia, mature): —; mean concentration in tissue (seed sarcotesta): —; mean concentration in tissue [3]: —

Like-named read-outs stand apart in the source and are kept apart here.
